{"source": "patent US9163008B2", "about": "“Pyrimidines as sodium channel blockers” (Purdue Pharma, L.P., priority 2011, dated 2015)", "system": "SNL-induced mechanical hyperalgesia", "experiment": "SNL-induced mechanical hyperalgesia model (paw pressure test)", "type": "in vivo, rat", "conditions": "rats, dosed orally at 100 mg/kg, vehicle 0.5% methyl cellulose, one hour before testing", "procedure": "In the Chung model, the spinal nerve ligation (SNL) model of neuropathic pain is used to produce mechanical hyperalgesia, thermal hyperalgesia, and tactile allodynia in rats. Surgery is performed under isoflurane/O2 inhalation anesthesia. Following induction of anesthesia a 3 cm incision is made and the left paraspinal muscles are separated from the spinous process at the L4-S2 levels. The L6 transverse process is carefully removed with a pair of small rongeurs to identify visually the L4-L6 spinal nerves. The left L5 (or L5 and L6) spinal nerve(s) is (are) isolated and tightly ligated with silk thread. […] The animals can also be assessed for response to noxious thermal stimuli or for tactile allodynia, as described below. […] Sensitivity to noxious mechanical stimuli was measured in animals using the paw pressure test to assess mechanical hyperalgesia. In rats, hind paw withdrawal thresholds (“PWT”), measured in grams, in response to a noxious mechanical stimulus were determined using an analgesymeter (Model 7200, commercially available from Ugo Basile of Italy), as described in Stein (Biochemistry & Behavior 31: 451-455 (1988)). […] PWT was determined once for each rat at each time point. PWT can be measured only in the injured paw, or in both the injured and non-injured paw. […]", "note": "At least one compound was matched to its structure with a doubt left.", "data": [{"compound": "C[C@H](Oc1cc(C(N)=O)nc(-c2ccc(Oc3ccc(C(F)(F)F)cc3)cc2)n1)C(N)=O", "note": "[compound 98, (S)-6-((1-amino-1-oxopropan-2-yl)oxy)-2-(4-(4-(trifluoromethylmethyl)phenoxy)phenyl)pyrimidine-4-carboxamide]", "values": [{"measurement": "SNL-induced mechanical hyperalgesia (paw withdrawal threshold)", "value": "reduced SNL-induced mechanical hyperalgesia"}]}]}
